Data from the supplement of paper PMC10849652.
This is one part of the list.

By UniProt entry, the sequences of proteins in these tests, tags left out. Where a name states a change or a piece, a line headed by the entry shows the natural chain unless it says otherwise.
UniProt O60637: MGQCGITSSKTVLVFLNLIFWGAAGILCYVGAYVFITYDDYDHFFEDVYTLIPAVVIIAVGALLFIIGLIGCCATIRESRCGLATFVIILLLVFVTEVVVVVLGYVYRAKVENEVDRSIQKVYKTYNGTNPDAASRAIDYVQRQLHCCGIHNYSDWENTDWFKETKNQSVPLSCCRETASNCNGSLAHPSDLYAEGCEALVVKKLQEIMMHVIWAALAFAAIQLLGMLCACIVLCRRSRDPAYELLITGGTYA
UniProt Q9H892: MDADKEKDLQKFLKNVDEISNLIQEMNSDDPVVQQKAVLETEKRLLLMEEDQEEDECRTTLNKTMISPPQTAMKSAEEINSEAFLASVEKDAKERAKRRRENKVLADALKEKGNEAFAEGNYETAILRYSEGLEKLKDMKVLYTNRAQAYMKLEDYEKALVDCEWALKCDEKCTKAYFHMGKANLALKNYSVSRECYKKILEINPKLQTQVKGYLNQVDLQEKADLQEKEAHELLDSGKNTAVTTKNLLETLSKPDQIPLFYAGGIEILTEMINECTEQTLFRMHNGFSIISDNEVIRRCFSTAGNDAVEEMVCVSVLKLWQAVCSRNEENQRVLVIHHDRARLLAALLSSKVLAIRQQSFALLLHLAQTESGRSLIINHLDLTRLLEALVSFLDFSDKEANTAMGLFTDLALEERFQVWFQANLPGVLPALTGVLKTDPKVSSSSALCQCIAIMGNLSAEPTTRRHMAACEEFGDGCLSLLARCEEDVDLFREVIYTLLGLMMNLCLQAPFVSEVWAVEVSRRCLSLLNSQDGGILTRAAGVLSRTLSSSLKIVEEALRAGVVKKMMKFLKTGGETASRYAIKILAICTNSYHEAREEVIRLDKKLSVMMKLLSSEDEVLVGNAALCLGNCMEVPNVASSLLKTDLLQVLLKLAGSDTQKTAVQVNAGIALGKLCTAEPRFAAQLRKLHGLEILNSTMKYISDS
UniProt Q15631: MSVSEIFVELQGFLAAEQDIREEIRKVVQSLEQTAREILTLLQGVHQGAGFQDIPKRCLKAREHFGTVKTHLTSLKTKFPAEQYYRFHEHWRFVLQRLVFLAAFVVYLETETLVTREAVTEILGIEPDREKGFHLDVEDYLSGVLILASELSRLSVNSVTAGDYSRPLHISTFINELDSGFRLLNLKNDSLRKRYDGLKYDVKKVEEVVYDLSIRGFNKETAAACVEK
UniProt Q96LD4: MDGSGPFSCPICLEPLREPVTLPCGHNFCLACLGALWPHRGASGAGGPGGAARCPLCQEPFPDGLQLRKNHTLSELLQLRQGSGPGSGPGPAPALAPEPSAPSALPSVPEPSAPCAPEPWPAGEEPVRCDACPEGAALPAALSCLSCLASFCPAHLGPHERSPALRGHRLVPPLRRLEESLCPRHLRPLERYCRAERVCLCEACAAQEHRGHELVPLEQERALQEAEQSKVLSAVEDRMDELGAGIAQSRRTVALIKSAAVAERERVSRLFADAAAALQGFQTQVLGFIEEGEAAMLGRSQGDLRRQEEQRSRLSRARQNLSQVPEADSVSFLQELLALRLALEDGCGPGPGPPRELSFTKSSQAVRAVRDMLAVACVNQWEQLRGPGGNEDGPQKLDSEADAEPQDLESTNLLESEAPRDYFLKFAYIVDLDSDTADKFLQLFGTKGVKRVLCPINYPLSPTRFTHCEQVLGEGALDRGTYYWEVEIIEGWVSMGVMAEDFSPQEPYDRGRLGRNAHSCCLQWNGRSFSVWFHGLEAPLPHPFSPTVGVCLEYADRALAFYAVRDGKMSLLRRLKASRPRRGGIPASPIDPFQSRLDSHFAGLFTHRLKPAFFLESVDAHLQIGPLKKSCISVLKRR
UniProt Q13077: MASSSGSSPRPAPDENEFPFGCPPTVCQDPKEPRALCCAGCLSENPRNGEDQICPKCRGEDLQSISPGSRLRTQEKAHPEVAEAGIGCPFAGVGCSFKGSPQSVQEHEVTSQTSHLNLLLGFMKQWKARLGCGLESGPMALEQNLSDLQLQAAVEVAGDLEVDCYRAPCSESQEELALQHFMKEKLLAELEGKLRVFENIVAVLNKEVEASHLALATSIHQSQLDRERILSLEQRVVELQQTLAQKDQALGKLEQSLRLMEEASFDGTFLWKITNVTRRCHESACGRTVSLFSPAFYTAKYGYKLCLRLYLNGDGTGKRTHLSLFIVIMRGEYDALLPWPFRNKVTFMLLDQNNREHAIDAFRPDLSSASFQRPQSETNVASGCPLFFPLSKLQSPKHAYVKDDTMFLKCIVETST
UniProt Q6AZZ1: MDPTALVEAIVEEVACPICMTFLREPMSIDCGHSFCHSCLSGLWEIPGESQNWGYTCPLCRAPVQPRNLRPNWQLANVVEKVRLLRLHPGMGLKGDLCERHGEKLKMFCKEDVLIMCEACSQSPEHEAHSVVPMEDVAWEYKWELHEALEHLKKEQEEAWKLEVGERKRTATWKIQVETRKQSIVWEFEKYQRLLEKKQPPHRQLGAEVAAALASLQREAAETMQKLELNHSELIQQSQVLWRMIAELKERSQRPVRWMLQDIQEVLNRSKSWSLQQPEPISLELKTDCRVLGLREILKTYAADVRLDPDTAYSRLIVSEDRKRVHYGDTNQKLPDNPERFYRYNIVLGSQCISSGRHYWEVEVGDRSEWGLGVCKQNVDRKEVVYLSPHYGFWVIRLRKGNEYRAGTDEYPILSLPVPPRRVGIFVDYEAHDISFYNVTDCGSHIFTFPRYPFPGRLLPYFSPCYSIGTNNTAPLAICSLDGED
UniProt Q6IQ55, whole entry, looked up: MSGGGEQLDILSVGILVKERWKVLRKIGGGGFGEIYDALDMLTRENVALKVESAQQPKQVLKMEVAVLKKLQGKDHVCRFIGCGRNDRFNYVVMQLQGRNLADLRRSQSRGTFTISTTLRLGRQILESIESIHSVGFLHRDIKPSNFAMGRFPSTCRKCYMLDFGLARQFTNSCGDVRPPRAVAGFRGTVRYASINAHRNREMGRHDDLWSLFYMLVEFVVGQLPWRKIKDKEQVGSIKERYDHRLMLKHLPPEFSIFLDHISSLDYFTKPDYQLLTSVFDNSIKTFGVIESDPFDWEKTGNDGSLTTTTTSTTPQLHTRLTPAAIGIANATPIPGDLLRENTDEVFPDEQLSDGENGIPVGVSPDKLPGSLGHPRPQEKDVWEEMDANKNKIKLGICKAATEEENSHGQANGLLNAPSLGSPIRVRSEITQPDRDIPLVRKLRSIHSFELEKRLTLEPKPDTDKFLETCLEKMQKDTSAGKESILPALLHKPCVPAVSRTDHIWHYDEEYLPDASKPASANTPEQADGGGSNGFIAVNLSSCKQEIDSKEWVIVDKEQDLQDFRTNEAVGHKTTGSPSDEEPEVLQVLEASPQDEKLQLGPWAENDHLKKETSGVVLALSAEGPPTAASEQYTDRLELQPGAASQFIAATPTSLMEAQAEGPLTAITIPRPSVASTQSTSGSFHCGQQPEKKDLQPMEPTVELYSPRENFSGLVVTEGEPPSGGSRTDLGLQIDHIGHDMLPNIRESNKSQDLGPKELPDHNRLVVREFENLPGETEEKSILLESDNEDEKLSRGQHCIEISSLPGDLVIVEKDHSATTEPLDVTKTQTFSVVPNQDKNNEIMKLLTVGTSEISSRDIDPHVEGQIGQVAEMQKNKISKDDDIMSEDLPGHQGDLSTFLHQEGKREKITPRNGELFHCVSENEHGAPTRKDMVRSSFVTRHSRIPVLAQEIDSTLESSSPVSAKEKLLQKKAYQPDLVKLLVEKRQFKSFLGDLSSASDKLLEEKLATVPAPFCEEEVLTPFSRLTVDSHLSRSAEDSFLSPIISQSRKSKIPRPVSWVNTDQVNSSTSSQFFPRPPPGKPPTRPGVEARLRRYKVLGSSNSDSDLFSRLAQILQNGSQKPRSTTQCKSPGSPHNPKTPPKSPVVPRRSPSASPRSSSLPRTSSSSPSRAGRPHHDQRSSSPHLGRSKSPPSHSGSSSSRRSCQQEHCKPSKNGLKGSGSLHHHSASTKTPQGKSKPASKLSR
UniProt Q8IYL2: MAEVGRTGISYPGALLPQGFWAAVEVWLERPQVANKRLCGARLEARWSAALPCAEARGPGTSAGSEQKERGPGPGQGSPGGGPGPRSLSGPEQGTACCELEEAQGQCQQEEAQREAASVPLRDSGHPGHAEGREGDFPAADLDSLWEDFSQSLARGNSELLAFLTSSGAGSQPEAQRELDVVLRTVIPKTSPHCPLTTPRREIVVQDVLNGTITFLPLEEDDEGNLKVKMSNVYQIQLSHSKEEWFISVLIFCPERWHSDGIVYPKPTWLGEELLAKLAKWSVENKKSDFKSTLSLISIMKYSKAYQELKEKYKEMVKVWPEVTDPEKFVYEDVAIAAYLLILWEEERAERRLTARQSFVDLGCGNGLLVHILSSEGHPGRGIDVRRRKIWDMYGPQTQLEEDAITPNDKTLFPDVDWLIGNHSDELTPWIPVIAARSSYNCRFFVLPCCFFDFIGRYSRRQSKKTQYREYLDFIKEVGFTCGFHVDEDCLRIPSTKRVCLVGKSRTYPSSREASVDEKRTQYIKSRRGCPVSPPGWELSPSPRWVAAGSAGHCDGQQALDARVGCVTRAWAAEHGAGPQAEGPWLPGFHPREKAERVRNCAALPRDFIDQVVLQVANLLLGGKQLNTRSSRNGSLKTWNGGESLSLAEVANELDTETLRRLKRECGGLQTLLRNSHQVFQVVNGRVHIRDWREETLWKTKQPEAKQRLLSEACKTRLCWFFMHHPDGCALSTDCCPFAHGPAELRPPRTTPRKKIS
UniProt O00463: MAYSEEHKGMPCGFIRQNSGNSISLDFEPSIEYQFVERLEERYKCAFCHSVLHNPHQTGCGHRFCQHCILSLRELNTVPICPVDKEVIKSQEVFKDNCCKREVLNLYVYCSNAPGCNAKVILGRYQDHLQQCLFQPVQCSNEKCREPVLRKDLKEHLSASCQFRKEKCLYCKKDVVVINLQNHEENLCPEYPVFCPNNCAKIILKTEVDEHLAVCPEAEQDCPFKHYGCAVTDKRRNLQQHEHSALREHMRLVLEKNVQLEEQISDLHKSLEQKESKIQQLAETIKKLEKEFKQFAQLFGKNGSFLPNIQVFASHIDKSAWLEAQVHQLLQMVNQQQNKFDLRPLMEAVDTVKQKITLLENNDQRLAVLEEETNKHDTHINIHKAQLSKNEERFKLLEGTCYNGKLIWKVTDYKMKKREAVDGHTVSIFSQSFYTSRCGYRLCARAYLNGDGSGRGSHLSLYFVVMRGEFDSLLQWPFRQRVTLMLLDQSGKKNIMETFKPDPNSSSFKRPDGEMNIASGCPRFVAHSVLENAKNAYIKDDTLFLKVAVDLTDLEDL
UniProt Q9UHF7: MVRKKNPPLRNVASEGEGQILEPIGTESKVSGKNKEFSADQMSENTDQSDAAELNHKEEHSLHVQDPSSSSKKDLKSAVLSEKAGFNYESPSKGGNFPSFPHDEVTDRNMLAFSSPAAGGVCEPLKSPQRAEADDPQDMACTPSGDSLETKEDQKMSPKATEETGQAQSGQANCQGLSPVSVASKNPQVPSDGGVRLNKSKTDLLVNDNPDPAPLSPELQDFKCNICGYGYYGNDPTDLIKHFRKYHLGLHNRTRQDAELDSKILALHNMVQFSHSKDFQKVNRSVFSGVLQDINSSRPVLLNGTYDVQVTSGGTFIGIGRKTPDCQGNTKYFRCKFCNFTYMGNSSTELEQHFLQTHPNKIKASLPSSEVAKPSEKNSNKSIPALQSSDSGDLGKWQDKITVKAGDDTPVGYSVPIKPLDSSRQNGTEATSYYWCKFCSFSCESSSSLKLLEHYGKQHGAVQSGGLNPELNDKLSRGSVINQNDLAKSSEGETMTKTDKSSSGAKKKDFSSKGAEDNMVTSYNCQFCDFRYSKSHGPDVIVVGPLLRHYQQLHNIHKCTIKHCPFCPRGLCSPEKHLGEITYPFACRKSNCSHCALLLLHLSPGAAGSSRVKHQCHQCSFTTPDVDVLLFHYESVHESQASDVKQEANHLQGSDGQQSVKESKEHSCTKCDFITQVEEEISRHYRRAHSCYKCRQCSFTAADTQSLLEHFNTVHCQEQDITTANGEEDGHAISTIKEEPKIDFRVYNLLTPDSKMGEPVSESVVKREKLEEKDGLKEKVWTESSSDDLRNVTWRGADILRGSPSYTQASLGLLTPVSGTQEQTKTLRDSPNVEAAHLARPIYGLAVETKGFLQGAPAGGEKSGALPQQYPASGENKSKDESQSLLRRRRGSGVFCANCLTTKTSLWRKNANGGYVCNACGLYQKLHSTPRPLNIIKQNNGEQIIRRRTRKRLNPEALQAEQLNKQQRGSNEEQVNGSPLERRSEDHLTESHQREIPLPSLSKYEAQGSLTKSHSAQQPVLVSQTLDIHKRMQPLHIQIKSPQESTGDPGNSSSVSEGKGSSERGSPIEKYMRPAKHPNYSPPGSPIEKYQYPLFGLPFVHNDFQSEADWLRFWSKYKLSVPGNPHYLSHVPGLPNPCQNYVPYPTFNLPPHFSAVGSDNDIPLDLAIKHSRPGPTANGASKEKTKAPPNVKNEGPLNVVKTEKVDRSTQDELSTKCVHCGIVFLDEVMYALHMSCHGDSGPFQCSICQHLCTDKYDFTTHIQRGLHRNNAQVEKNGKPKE

Assays:
Test in all cases: log2 fold change, soluble protein after heating vs DMSO (PISA); higher = thermal stabilisation; K562 lysate, 10 uM; active = over 0.2 and 3.5 SD of the protein, either way, in both replicates (recomputed)
ibrutinib = compound: C=CC(=O)N1CCC[C@@H](n2nc(-c3ccc(Oc4ccccc4)cc3)c3c(N)ncnc32)C1 [ibrutinib]
How it was run: (§1)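 Pellets of K562 cells were dounce-homogenised in PBS pH 7.4 with 1 mM MgCl2, and the crude extract was held at 1 mg/mL protein for a 30 min treatment with 10 μM compound. Aliquots were heated for 3 min over 48°C-58°C and pooled before NP-40 was added to 0.5% at 4°C. The supernatant from 21,000xg for 90 min was quantified by TMTpro 16plex LC-MS/MS with channel sums equalised. Values are reported from duplicates as log-two fold change in thermal stability relative to solvent controls.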

[1] = compound: CC(=O)c1cnc2ccc(-c3cc(Cl)c(O)c(Cl)c3)nc2c1N[C@H]1CC[C@H](CN(C)C)CC1
How it was run: as §1

ralimetinib = compound: CC(C)(C)Cn1c(N)nc2ccc(-c3[nH]c(C(C)(C)C)nc3-c3ccc(F)cc3)nc21 [ralimetinib]
How it was run: as §1

[2] = compound: CC(C)(O)CC(=O)NCCn1ccc2ncnc(Nc3ccc(Oc4cccc(C(F)(F)F)c4)c(Cl)c3)c21
How it was run: as §1

[3] = compound: CC(C)C1=C2N=C(C=C(N2N=C1)NCC3=CC=CC=C3)NCCCCCCN
How it was run: as §1

[4] = compound: CC1=C(C(CC(=O)N1)C2=CC=C(C=C2)C(F)(F)F)C(=O)NC3=C(C=C4C(=C3)C=NN4)F
How it was run: as §1

[5] = compound: CC1=C(C2=C(C=C1)C(=O)C3=CC=CC=C3N2CCCN)C
How it was run: as §1

[6] = compound: CC1=C(C=C(C=C1)NC(=O)C2=CC(=CC=C2)C(C)(C)C#N)NC3=CC4=C(C=C3)N=CN(C4=O)C
How it was run: as §1

[7] = compound: CC1=C(C=C(C=C1)NC(=O)C2=CC(=CC=C2)N(C)C)NC(=O)C3=CC=C(C=C3)O
How it was run: as §1

[8] = compound: CC1=CC=C(C=C1)SC2=C3C=C(SC3=CN=C2)C(=O)N
How it was run: as §1

Measured: log2 fold change

TRIP10 isoform 2 (UniProt Q15642)
inactive: ibrutinib -0.085 | [1] 0.033 | ralimetinib 0.095 | [2] -0.059 | [3] -0.003 | [4] 0.086 | [5] -0.086 | [6] -0.004 | [7] -0.111 | [8] 0.045

TSPAN3 (UniProt O60637)
inactive: [1] 0.008 | ralimetinib -0.069 | [2] -0.025 | [3] 0.05 | [4] -0.173 | [5] -0.099 | [7] 0.135 | [8] -0.04

TRIM67 (UniProt Q6ZTA4)
inactive: [1] 0.051 | ralimetinib 0.164 | [2] 0.019 | [3] -0.018 | [7] 0.061 | [8] -0.061

TSEN34 (UniProt Q9BSV6)
inactive: ibrutinib 0.058 | [1] 0.009 | ralimetinib 0.05 | [2] -0.019 | [3] 0.012 | [4] 0.012 | [5] 0.093 | [6] 0.017 | [7] -0.015 | [8] 0.058

TTC21B (UniProt Q7Z4L5)
inactive: ibrutinib -0.075 | [3] -0.063 | [4] 0.035 | [5] -0.341

TRIOBP (UniProt Q9H2D6)
inactive: ibrutinib -0.013 | [1] -0.162 | ralimetinib 0.034 | [2] 0.017 | [3] 0.011 | [5] 0.095 | [6] 0.023 | [7] -0.034 | [8] 0.062

TTC28 (UniProt Q96AY4)
inactive: ibrutinib 0.002 | [3] 0.192 | [4] -0.038 | [6] -0.033

TRAPPC2 isoform 3 (UniProt P0DI81)
inactive: ibrutinib 0.029 | [1] -0.031 | ralimetinib 0 | [2] 0.015 | [3] -0.039 | [4] -0.116 | [5] -0.204 | [6] -0.022 | [7] 0.018 | [8] 0.02

TTC12 isoform 2 (UniProt Q9H892)
inactive: ibrutinib -0.002 | [1] -0.073 | ralimetinib 0.053 | [2] 0.128 | [3] -0.032 | [4] -0.049 | [5] -0.042 | [6] 0.037 | [7] -0.14 | [8] -0.003

TSTD2 (UniProt Q5T7W7)
inactive: ibrutinib -0.052 | [1] -0.027 | ralimetinib 0.039 | [2] -0.06 | [3] 0.082 | [4] 0.019 | [5] 0.059 | [7] 0.075 | [8] 0.123

TRIO (UniProt O75962)
inactive: ibrutinib -0.003 | [1] -0.059 | [3] 0 | [4] -0.071 | [5] 0.124 | [6] 0.21 | [8] -0.089

TSN (UniProt Q15631)
inactive: ibrutinib 0.019 | [1] -0.002 | ralimetinib -0.022 | [2] -0.008 | [3] 0.009 | [4] -0.025 | [5] -0.034 | [6] 0.043 | [7] -0.004 | [8] -0.003

TRIP4 (UniProt Q15650)
inactive: ibrutinib 0 | [1] 0.021 | ralimetinib -0.022 | [2] -0.019 | [3] -0.027 | [4] -0.001 | [5] -0.004 | [6] 0.008 | [7] 0.073 | [8] 0.041

TTC13 (UniProt Q8NBP0)
inactive: ibrutinib 0.06 | [1] 0.099 | ralimetinib 0.132 | [2] -0.212 | [6] 0.029 | [7] -0.057 | [8] -0.209

TRIM3 (UniProt O75382)
inactive: [1] -0.06 | [3] -0.09 | [8] 0.048

TRIM47 (UniProt Q96LD4)
inactive: [1] -0.111 | [3] -0.163 | [4] -0.074 | [5] -0.083 | [8] -0.165

TRIM16 (UniProt O95361)
inactive: [3] 0.04 | [5] -0.007

TRAF1 (UniProt Q13077)
inactive: ralimetinib 0.17 | [2] 0.148 | [7] -0.326

TTC30B (UniProt Q8N4P2)
inactive: [6] -0.144

TRIM68 (UniProt Q6AZZ1)
inactive: [3] -0.027 | [4] -0.124 | [6] 0.109

TRIM37 (UniProt O94972)
inactive: ralimetinib -0.308 | [2] 0.057 | [3] 0.051 | [5] 0.066 | [6] -0.037 | [7] -0.01

TTLL4 (UniProt Q14679)
inactive: ralimetinib -0.011 | [2] -0.059 | [4] -0.205 | [7] -0.106

TSKS (UniProt Q9UJT2)
inactive: ralimetinib -0.045 | [2] 0.047 | [3] 0 | [5] -0.073 | [6] 0.033 | [7] 0.025

TTBK2 (UniProt Q6IQ55)
inactive: [3] 0.128 | [6] -0.026

TRAF3IP2 (UniProt O43734)
inactive: ralimetinib -0.031 | [2] 0.115 | [3] -0.001 | [7] -0.02

TSEN15, A0A2U3TZM3
inactive: [1] -0.289 | ralimetinib 0.275 | [2] 0.124 | [4] -0.064 | [5] 0.073 | [7] -0.249 | [8] 0.113

TRMT10B (UniProt Q6PF06)
inactive: ralimetinib -0.058 | [2] -0.18 | [7] 0.161

TRIM41 (UniProt Q8WV44)
inactive: [1] 0.068 | [5] -0.144 | [6] -0.039 | [8] 0.024

TSPYL2 (UniProt Q9H2G4)
inactive: [3] 0.068 | [4] -0.079 | [5] -0.258 | [6] 0.108

TTC26
inactive: ralimetinib 0.105 | [2] -0.048 | [4] -0.033 | [5] 0.097 | [7] -0.355

TRMT44 (UniProt Q8IYL2)
inactive: [6] 0.003

TRAF5 isoform 2 (UniProt O00463)
inactive: ralimetinib -0.219 | [2] -0.296 | [3] 0.08 | [7] 0.053

TSC22D1 isoform 2 (UniProt Q15714)
inactive: ralimetinib 0.314 | [2] 0.003 | [6] 0.053 | [7] -0.183

Quoted from above (eleven entries):
TRIM37 (UniProt O94972)
inactive: ralimetinib -0.308 | [2] 0.057 | [3] 0.051 | [5] 0.066 | [6] -0.037 | [7] -0.01

TTLL4 (UniProt Q14679)
inactive: ralimetinib -0.011 | [2] -0.059 | [4] -0.205 | [7] -0.106

TSKS (UniProt Q9UJT2)
inactive: ralimetinib -0.045 | [2] 0.047 | [3] 0 | [5] -0.073 | [6] 0.033 | [7] 0.025

TTBK2 (UniProt Q6IQ55)
inactive: [3] 0.128 | [6] -0.026

TRAF3IP2 (UniProt O43734)
inactive: ralimetinib -0.031 | [2] 0.115 | [3] -0.001 | [7] -0.02

TSEN15, A0A2U3TZM3
inactive: [1] -0.289 | ralimetinib 0.275 | [2] 0.124 | [4] -0.064 | [5] 0.073 | [7] -0.249 | [8] 0.113

TRMT10B (UniProt Q6PF06)
inactive: ralimetinib -0.058 | [2] -0.18 | [7] 0.161

TRIM41 (UniProt Q8WV44)
inactive: [1] 0.068 | [5] -0.144 | [6] -0.039 | [8] 0.024

TSPYL2 (UniProt Q9H2G4)
inactive: [3] 0.068 | [4] -0.079 | [5] -0.258 | [6] 0.108

TTC26
inactive: ralimetinib 0.105 | [2] -0.048 | [4] -0.033 | [5] 0.097 | [7] -0.355

TRMT44 (UniProt Q8IYL2)
inactive: [6] 0.003

Following part.

TRAM2 (UniProt Q15035)
inactive: [1] 0.05 | ralimetinib 0.032 | [2] -0.158 | [6] 0 | [7] 0.003 | [8] 0.106

TRAF7 (UniProt Q6Q0C0)
inactive: ralimetinib 0.046 | [2] -0.091 | [4] 0.023 | [5] -0.022 | [6] 0.07 | [7] -0.031

TRIB3 (UniProt Q96RU7)
inactive: [3] -0.009 | [5] 0.053

TRPS1 isoform 2 (UniProt Q9UHF7)
inactive: [1] -0.009 | [3] -0.028 | [5] -0.296 | [6] 0.198 | [8] 0.347
